These are yes or no findings as the source states them, for the method shown. In cells and extracts the contact can be indirect. A yes stands for co-enrichment or nearness to the bait. Other partners may have been found. Values belong to the binder of their own block, whether it stands above or below them.
Target: FMNL2-birA* fusion protein (human) (UniProt Q96PY5)
Assay: proximity labelling; BioID screen with SILAC: FMNL2-birA* (Heavy) against FMNL2-mCherry control (Light), transiently expressed in HEK293T/17; 50 μM biotin for 16 h; low-salt RIPA lysate; streptavidin-agarose capture; in-gel trypsin digest and LC-MS/MS; hits with SILAC ratios twofold above the median, filtered for known contaminants

Protein sequences, listed by entry. Tags and fused reporters are not part of them.
UniProt Q96PY5: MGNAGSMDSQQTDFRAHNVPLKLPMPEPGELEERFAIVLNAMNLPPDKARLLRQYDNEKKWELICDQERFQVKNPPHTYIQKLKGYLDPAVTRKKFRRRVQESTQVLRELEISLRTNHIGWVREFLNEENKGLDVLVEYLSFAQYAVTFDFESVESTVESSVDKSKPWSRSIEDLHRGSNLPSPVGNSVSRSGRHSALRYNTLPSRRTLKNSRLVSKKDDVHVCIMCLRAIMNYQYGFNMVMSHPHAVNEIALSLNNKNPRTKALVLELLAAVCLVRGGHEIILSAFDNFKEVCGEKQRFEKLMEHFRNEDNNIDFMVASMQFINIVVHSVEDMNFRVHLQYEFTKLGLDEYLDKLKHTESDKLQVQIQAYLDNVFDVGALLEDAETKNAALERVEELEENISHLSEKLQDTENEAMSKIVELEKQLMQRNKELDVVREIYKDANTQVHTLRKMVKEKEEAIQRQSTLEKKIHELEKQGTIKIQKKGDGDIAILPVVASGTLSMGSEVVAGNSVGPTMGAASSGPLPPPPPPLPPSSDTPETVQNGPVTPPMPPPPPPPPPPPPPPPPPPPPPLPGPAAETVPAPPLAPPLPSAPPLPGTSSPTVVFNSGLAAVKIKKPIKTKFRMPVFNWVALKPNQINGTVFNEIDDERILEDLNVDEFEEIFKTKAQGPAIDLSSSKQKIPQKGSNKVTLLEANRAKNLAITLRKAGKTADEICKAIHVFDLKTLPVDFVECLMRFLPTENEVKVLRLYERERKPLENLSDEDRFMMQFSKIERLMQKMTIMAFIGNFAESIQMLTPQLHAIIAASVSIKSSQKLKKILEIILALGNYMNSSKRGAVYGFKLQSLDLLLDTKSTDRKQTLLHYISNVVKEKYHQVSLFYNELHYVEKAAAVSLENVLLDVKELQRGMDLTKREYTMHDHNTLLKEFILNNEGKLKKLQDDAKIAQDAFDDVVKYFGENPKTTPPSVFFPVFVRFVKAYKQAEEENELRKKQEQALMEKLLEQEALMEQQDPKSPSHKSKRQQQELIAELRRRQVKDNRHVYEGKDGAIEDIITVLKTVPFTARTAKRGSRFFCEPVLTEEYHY

binding: binds
B1: RAI14 (protein, UniProt Q9P0K7 1-980)
chain: MKSLKAKFRKSDTNEWNKNDDRLLQAVENGDAEKVASLLGKKGASATKHDSEGKTAFHLAAAKGHVECLRVMITHGVDVTAQDTTGHSALHLAAKNSHHECIRKLLQSKCPAESVDSSGKTALHYAAAQGCLQAVQILCEHKSPINLKDLDGNIPLLLAVQNGHSEICHFLLDHGADVNSRNKSGRTALMLACEIGSSNAVEALIKKGADLNLVDSLGYNALHYSKLSENAGIQSLLLSKISQDADLKTPTKPKQHDQVSKISSERSGTPKKRKAPPPPISPTQLSDVSSPRSITSTPLSGKESVFFAEPPFKAEISSIRENKDRLSDSTTGADSLLDISSEADQQDLLSLLQAKVASLTLHNKELQDKLQAKSPKEAEADLSFDSYHSTQTDLGPSLGKPGETSPPDSKSSPSVLIHSLGKSTTDNDVRIQQLQEILQDLQKRLESSEAERKQLQVELQSRRAELVCLNNTEISENSSDLSQKLKETQSKYEEAMKEVLSVQKQMKLGLVSPESMDNYSHFHELRVTEEEINVLKQDLQNALEESERNKEKVRELEEKLVEREKGTVIKPPVEEYEEMKSSYCSVIENMNKEKAFLFEKYQEAQEEIMKLKDTLKSQMTQEASDEAEDMKEAMNRMIDELNKQVSELSQLYKEAQAELEDYRKRKSLEDVTAEYIHKAEHEKLMQLTNVSRAKAEDALSEMKSQYSKVLNELTQLKQLVDAQKENSVSITEHLQVITTLRTAAKEMEEKISNLKEHLASKEVEVAKLEKQLLEEKAAMTDAMVPRSSYEKLQSSLESEVSVLASKLKESVKEKEKVHSEVVQIRSEVSQVKREKENIQTLLKSKEQEVNELLQKFQQAQEELAEMKRYAESSSKLEEDKDKKINEMSKEVTKLKEALNSLSQLSYSTSSSKRQSQQLEALQQQVKQLQNQLAECKKQHQEVISVYRMHLLYAVQGQMDEDVQKVLKQILTMCKNQSQKK

binding: binds
B2: PHACTR4 (protein, UniProt Q8IZ21 1-702)
chain: MEDPFEEADQPTTEPGMVLDSVEAGDTTPPTKRKSKFSGFGKIFKPWKWRKKKSSDKFKETSEVLERKISMRKPREELVKRGVLLEDPEQGGEDPGKPSDAMLKNGHTTPIGNARSSSPVQVEEEPVRLASLRKAIPEEDLKKRLGSTGSQPNSEAESVPENVPKPPLLPPKRPLSSSHEASEGQAKDATSSGGTARFIISTSITTAPAATTAATSLAKTVNLSVTPSPAPRTLPAAPASTNTTATPSLTHMVPAKQPPIPPPKPAHRNSNPVIAELSQAINSGTLLSKPSPPLPPKRGIPSTSVPTLESAAAITTKTPSDEREKSTCSMGSELLPMISPRSPSPPLPTHIPPEPPRTPPFPAKTFQVVPEIEFPPSLDLHQEIPQQEDQKKEVPKRILDQNFGEPHIPSRLPPLPLHIRIQQALTSPLPMTPILEGSHRAHSLLFENSDSFSEDSSTLGRTRSLPITIEMLKVPDDEEEEEQTCPSTFSEEMTPTSVIPKLPQCLREEEEKESDSDSEGPIQYRDEEDEDESYQSALANKVKRKDTLAMKLNHRPSEPELNLNSWPCKSKEEWNEIRHQIGNTLIRRLSQRPTPEELEQRNILQPKNEADRQAEKREIKRRLTRKLSQRPTVAELLARKILRFNEYVEVTDAQDYDRRADKPWTKLTPADKAAIRKELNEFKSSEMEVHEESKHFTRYHRP

— article PMC11171801
